PMC10754819
Results are given in words; binding and its absence hold for the method and conditions named. In cells and extracts the contact can be indirect. These calls come from enrichment with a bait or labelling near it, and not all partners need be listed. Sequences can lack the tags named with a protein.

The chains behind the UniProt entries cited, without tags or fusion partners. Where a name states a change or a piece, a line headed by the entry shows the natural chain unless it says otherwise.
UniProt A0A0B4LFP5: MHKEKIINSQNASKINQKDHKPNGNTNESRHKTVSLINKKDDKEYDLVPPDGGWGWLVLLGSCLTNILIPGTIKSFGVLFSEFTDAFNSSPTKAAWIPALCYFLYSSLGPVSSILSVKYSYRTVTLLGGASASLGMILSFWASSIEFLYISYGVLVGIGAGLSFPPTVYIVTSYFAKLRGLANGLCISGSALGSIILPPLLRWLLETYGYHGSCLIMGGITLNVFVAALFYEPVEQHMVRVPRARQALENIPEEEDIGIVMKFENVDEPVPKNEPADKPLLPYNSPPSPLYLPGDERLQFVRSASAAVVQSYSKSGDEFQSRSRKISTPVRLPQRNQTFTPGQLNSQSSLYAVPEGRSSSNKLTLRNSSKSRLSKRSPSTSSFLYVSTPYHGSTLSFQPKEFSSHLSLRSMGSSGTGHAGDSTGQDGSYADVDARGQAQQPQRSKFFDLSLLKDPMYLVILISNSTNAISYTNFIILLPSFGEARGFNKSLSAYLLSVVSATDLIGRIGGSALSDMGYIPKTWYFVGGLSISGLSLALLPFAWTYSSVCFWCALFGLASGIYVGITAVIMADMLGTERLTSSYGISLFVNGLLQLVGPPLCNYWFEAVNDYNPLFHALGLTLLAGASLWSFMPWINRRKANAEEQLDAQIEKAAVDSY
UniProt Q7K3M5: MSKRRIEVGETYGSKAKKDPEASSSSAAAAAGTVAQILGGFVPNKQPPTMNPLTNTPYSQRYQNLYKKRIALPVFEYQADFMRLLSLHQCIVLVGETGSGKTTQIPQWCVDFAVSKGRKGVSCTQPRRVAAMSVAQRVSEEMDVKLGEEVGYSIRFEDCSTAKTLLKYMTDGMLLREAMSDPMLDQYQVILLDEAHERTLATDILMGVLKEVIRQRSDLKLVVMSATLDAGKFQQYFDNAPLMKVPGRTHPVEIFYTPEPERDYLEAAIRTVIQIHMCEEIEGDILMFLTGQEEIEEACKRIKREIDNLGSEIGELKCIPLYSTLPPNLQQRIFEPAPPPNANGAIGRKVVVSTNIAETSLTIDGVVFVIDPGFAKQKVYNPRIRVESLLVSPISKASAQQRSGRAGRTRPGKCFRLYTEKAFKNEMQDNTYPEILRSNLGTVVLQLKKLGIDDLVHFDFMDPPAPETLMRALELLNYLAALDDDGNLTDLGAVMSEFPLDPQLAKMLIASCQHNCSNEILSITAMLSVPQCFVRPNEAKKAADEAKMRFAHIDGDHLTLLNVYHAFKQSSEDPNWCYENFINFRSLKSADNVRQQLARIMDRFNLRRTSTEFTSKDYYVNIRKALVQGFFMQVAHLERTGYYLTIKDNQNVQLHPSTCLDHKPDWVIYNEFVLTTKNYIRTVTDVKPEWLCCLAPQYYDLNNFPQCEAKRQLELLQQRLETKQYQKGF
UniProt P12982: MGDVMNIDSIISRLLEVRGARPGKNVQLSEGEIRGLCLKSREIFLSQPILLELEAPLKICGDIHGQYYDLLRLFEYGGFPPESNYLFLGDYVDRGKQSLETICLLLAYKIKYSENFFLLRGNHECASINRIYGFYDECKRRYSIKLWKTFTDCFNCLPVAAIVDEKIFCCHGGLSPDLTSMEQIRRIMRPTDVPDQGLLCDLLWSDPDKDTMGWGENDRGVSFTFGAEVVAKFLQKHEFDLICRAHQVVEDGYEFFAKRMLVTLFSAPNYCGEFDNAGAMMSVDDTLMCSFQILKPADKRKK

T1: dTrmt10A-FLAG-HA (Drosophila Trmt10A, CG14618) (Drosophila) (UniProt Q9VR56)
T1 sequence: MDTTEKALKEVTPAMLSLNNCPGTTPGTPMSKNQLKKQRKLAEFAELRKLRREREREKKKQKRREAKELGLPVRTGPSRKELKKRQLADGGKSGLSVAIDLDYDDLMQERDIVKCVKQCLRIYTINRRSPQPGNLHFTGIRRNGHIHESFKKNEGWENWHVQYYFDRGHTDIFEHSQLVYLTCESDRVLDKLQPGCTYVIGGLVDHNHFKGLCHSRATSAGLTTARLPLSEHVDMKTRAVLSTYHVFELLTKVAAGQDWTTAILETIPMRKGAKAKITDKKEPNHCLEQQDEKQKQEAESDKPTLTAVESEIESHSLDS

B1: eIF3a (protein, UniProt Q9VN25 1-1140)
chain: MARYTQRPENALKRANEFIEVGKPLRALDTLQEVFRNKRWNYAYSETVIEPLMFKYLYLCVELKKSHIAKEGLFQYRNMFQLVNVNSLENVIRGYLKMAEEHTEAAQAQSSAAVAVLELDDLDNIATPESILMSAVCGEDAQDRSDRTILLPWVKFLWESYCQCLELLRVNTHCEALYHDIARMAFQFCLKYNRKSEFRRLCDKLRKHLEDICKSSNQTTGVSINKVETQQLCLDTRLYLLDSAIQMELWQEAYKAIEDIHGLMALSKKTPVPKTMANYYQKLAMVFSKAGNQLFHAAALLKLFQLTRELKKNLTKDDLQRMAAHVLLATLSIPLPSAHPEFDRFIEADKSPLEKAQKLAVLLGLPQPPTRVSLIREVVRLNVPQLVSEDFRNLYNWLEVDFNPLNLCKRIQSIVDFIENGPENALLTPYIQSLKDVTIMRLIRQISQVYESIKFQRLLQLASFCNIFELEKLLVESVRHNDMQIRIDHQKNSIYFGTDLTESQREYRPDGPALQSMPSEQIRSQLVNMSTVLTRAVSIVYPNRERDQRAKLRNQMVNHYHEIKDREHQRILQRQKIIEDRKEYIEKQNNAREEEEARRQEEESRKAKLAEQKRLEQEQEERERKRHQNEIQAIREKSLKEKVQQISQTAHGKKMLSKLDEEGIKKLDAEQIAKRESEELQREAKELQSKLKSQEKKIDYFERAKRLEEIPLFEKYLAEKQVKDKEFWEATEKTRIENAIAERKDAVAQQERLKRMYPDRDEFLEALKKERASLYVEKLKKFEAALEAERKKRLADRIIRRREERRQAFLREKEEERLRKEEEIRLAQAAEERAAAEARRLEREAEDEKRRAQYEKQRAKEEEAERKIKEDRDRLSRELASERERTEKDRDTWRPRGGDRPSASNGGSSEWRRAAPAASERNDRGGERIERGGERIERGGERLERGGERIERGGDRDRKDNEGADSSWRVRREPDSQRAAAPKDSGAPQSRDDKWRRGGERDRDFRIDGARRDRDDGPRRDRDDGPRRDRDDERGGFRRADGARRTDEPQRETGGNWRDAPRHADRETRRPAERRDRDVRETRGDQRGSAPKEAASGGVGGNWRTAPATREEKPAAKRDQAQEKENKAGDDGEWTSVKRR
B2: Atx2 (protein, UniProt Q8SWR8 1-1084)
chain: MNNNSKRKTRPTGGGASGGISRYNSNDNSLRPTNNKAGAGGGNGGAAVRPSAQGVYNNTFFMHSATALVGSVVEVRLRSGNIYEGVFRTFSGNFDIALELPACIKSKNLPEEGKVPKHIIFPADTVVTIVAKDFDSQYATAGAFQTDGAISDKCNGARPDEKELEPWDSGANGDIDIELDSAANGWDPNEMFRKNENTFGVTSTFDDSLASYTVPLDKGDSLEFKEAEAKAEKLAAEIENNPTCRDRLDLENGDEEALFAAVERPSTEQDQRGDRGDRERNDRDREREERDRDRDRDRGNKPRGAGDFQLRETMSSDRYITKQTRSITGPQLSHVGMSSQGSGRDRDTRGDGSMMMQSGGGSGQGGSTQSTAALMLAGGLKGVGPAPSANASADSSSKYSGGSMVKRKTVPQGGKVMRNNVPTGGSNVSVSQGGNGNSVGQNKGGYQPSMGMPSQYSYQGNSQIMHGSSQYRNQSHMGGANKLNGDSNANTNKPLPQRQMRQYQGSQSNSSLNYGGEPQSLGKPVHGSHGGHPGQNSNSPPLQTAGPQQQQQQQQQQQQQQQQQQPPQQQQHQNIQPQGQNTQPARQVRTRDNQMQELRQFGQDFQLAPSNTSPPQQQQQQQQQQQQHQVQQQQQRALQQSASPPQQQQQQQQQQQHVVLHQVPQTHLHQAALSQPHYVPQQQPQQAPLPQQQHVPHHMQQKAQQQQLVETQHQHVQKQHQSQPQVQQPPPQLLQDPSQQPLPIYHTMPPPQTSPVVVTSPVLLEQPPPQPMPVVQQQQTQQLATPKPEVSPAPPSSNTTTPTGIASTPTAGVIASAGSEKTTPAAPTPTSNSATVPTGTAATAGGATGTTPVVKKHVLNPSAKPFTPRGPSTPNPSRPHTPQTPVPMTNIYTTTGGHVPPAANQPIYVMQPQHPFPPQTHPQAGQPPRLRRSNYPPMAASQMHVSASAATGQPLITAGPIPQFIQYGHAPHQQQFQSHTYAPMQMRVYPDQPQQLQFMTQTPQSTTPSPGQPHQQFHPPPQPSPAGGGPQPAFTPPTQAATYQLMCVHPQSLLANHYFPPPTPQHPQQNQQQYQIVMQQHQPQ
B3: Rga (protein, UniProt Q94547 1-585)
chain: MANLNFQQPPRSIANAALAGRTTGGFGGSSLAGHVTPTSGMFQTDFANSYPGTANYGQAPQQQQQQQQQPQLSPNRNAQLSVGGPAISSGNRNANLFGQRQFVERRAMQGLGSGPMSNMGNFMQTGRGGYGTGGGGGGPLNNFHVFGGGGGSDTSTPALLDPTEFPSLTNARGQNDQTLPQSNPLQPPGSKPYGNFFTSFGMVKQPTSEQSEFTMSNEDFPALPGTQNSDGTTNAVGSVAGTGGSGGASTENHLDGTEKPMNSIVVSGSASGSSGSNVGVVGGNGLGAVGSGIGGLAVGGGGGAGSSGGGGVGGNAASGVVGGSHVGLVGSNSGIGGVNSVPNSNAMMGVGGGLGSGSGSSGSGAGGEHLNDNSSNDKLVKSGVQTSPDGKVTNIPATMVNNQFGMVGLLTFIRAAETDPNLVTLSLGTDLTGLGLNLNSQESLHTTFAGPFVAQPCRAQDVEFNVPPEYLINFAIRDKLTAPVLKKLQEDLLFFLFYTNIGDMMQLMAAAELHSREWRYHVEEKIWITRIPGIDQYEKNGTKERGTFYYFDAQSWKRLSKVFQIDPEKLDKCPNISAFMNGQSV

Target: T1, dTrmt10A-FLAG-HA (Drosophila Trmt10A, CG14618) (Drosophila)
Test: affinity purification with mass spectrometry; dTrmt10A-FLAG-HA immunoprecipitated from adult fly head lysates (80 heads per replicate, n = 3) with anti-HA antibody immobilised on agarose resin, mouse IgG as control; overnight at 4 °C; LC-MS/MS, MaxQuant

| Molecule | binding |
| --- | --- |
| hrm (from UniProt A0A0B4LFP5) | binds |
| CG18680 | binds |
| CG9953 (from UniProt Q9VS02) | binds |
| twin | binds |
| Dhx15 (from UniProt Q7K3M5 1-729) | binds |
| Pp1-87B (from UniProt P12982 1-302) | binds |
| B1 | binds |
| B2 | binds |
| B3 | binds |
